{"source": "the supplement of paper PMC3334620", "note": "The full ranking holds about 33,000 sequences; the median of “E-score (-0.5 to 0.5)” is about -0.0059, and the highest 2% start at about 0.26. This is one part of the list."}
{"target": "T1, Cin5 (UniProt P40917)", "T1 sequence": "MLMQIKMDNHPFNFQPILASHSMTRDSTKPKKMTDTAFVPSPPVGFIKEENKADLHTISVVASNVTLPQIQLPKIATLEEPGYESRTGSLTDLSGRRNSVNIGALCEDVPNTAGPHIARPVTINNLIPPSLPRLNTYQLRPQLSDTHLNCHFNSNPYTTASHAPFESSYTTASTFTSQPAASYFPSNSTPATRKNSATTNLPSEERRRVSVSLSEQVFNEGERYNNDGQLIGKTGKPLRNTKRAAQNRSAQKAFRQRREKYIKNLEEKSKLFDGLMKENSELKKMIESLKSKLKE", "experiment": "PBM E-score (8-mer binding enrichment) (E-score (-0.5 to 0.5)); higher = stronger / more preferred TF binding", "conditions": "protein concentration: 100 nM; construct: GST-full length", "protocol": "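Universal 'all 10-mer' protein binding microarrays (Agilent AMADID 015681) probed with GST-tagged S. cerevisiae TFs (full-length or DBD) made by in vitro transcription/translation (PURExpress), about 100-200 nM. Bound TF was detected with fluorescent anti-GST. Each ungapped 8-mer (which stands for itself and its reverse complement) is scored by the PBM enrichment score (E-score), a modified Wilcoxon-Mann-Whitney statistic from -0.5 to +0.5, computed with the Universal PBM Analysis Suite. Scale: above 0.35 generally sequence-specific binding.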"}
{"sequence": "GACGCACC", "PBM E-score": -0.0178}
{"sequence": "CAAAACTA", "PBM E-score": 0.116}
{"sequence": "AAGCTGCC", "PBM E-score": -0.0392}
{"sequence": "AATCCTCA", "PBM E-score": -0.0921}
{"sequence": "ACCTTGTA", "PBM E-score": -0.0397}
{"sequence": "CACGAAAA", "PBM E-score": 0.115}
{"sequence": "GATCCCTA", "PBM E-score": -0.0517}
{"sequence": "GTCGGTGA", "PBM E-score": -0.233}
{"sequence": "AGGCCTAA", "PBM E-score": 0.0684}
{"sequence": "ACACCTTG", "PBM E-score": -0.0698}
{"sequence": "AACTCCCA", "PBM E-score": 0.0682}
{"sequence": "CCGTTTTC", "PBM E-score": 0.108}
{"sequence": "CCCCTGTC", "PBM E-score": -0.388}
{"sequence": "ATAATATG", "PBM E-score": 0.289}
{"sequence": "ATACTAGC", "PBM E-score": 0.154}
{"sequence": "GATGACTA", "PBM E-score": 0.115}
{"sequence": "CAATGTAC", "PBM E-score": -0.235}
{"sequence": "GGATCAAC", "PBM E-score": 0.0508}
{"sequence": "GATTTCCC", "PBM E-score": 0.028}
{"sequence": "CGGCTAAC", "PBM E-score": -0.0544}
{"sequence": "AGCGGACT", "PBM E-score": -0.2}
{"sequence": "ATTAGGAA", "PBM E-score": -0.00206}
{"sequence": "AACGTTAA", "PBM E-score": 0.0646}
{"sequence": "GAATGTAC", "PBM E-score": 0.0981}
{"sequence": "CCCCATTA", "PBM E-score": -0.176}
{"sequence": "ATTTACAC", "PBM E-score": 0.0129}
{"sequence": "CCGGCCAG", "PBM E-score": -0.147}
{"sequence": "ATCCGGAC", "PBM E-score": -0.149}
{"sequence": "AGATCTTC", "PBM E-score": -0.0381}
{"sequence": "GATAGAAC", "PBM E-score": 0.0486}
{"sequence": "ATTGCTGA", "PBM E-score": 0.115}
{"sequence": "CCCGGGGA", "PBM E-score": -0.108}
{"sequence": "CTGTAATA", "PBM E-score": 0.105}
{"sequence": "ATAAAAAT", "PBM E-score": 0.0935}
{"sequence": "ATTGGTTG", "PBM E-score": 0.205}
{"sequence": "CTCGAGCC", "PBM E-score": -0.0495}
{"sequence": "AAGAACGC", "PBM E-score": -0.0488}
{"sequence": "ACAGGTCC", "PBM E-score": -0.227}
{"sequence": "AGCTTGGA", "PBM E-score": -0.182}
{"sequence": "AATATCAA", "PBM E-score": 0.203}
{"sequence": "AATTGCGA", "PBM E-score": 0.0349}
{"sequence": "AACGTCCT", "PBM E-score": 0.0671}
{"sequence": "CGGTAGAC", "PBM E-score": -0.0132}
{"sequence": "AGACAAGA", "PBM E-score": 0.0614}
{"sequence": "TAACACAA", "PBM E-score": 0.155}
{"sequence": "GTACTCTA", "PBM E-score": -0.0538}
{"sequence": "CCGCCTAA", "PBM E-score": -0.0943}
{"sequence": "GCTGCCGA", "PBM E-score": -0.183}
{"sequence": "AGTAGGTA", "PBM E-score": 0.0225}
{"sequence": "ACAACGCT", "PBM E-score": -0.00306}
{"sequence": "CTTTCGCC", "PBM E-score": -0.0892}
{"sequence": "GAACACTC", "PBM E-score": 0.0733}
{"sequence": "GAAGATTC", "PBM E-score": 0.0827}
{"sequence": "AAGAGTTC", "PBM E-score": -0.117}
{"sequence": "GATCGAAA", "PBM E-score": 0.223}
{"sequence": "GAAAGTTC", "PBM E-score": -0.118}
{"sequence": "ATAAGGTA", "PBM E-score": 0.186}
{"sequence": "TCCTTCGA", "PBM E-score": -0.183}
{"sequence": "GCTCGGCA", "PBM E-score": -0.0441}
{"sequence": "CTGAGTAC", "PBM E-score": -0.0169}
{"sequence": "CCGGCATA", "PBM E-score": -0.02}
{"sequence": "CGTCTAAA", "PBM E-score": -0.073}
{"sequence": "CAATCTAC", "PBM E-score": -0.0222}
{"sequence": "GGTGCGAC", "PBM E-score": -0.0558}
{"sequence": "CCAGATAC", "PBM E-score": -0.0913}
{"sequence": "GCTCAATA", "PBM E-score": 0.108}
{"sequence": "CAGAATAA", "PBM E-score": 0.162}
{"sequence": "AGTTCAAA", "PBM E-score": 0.104}
{"sequence": "AACCCTAT", "PBM E-score": 0.107}
{"sequence": "AGGCCTAG", "PBM E-score": -0.187}
{"sequence": "GCATTATA", "PBM E-score": 0.152}
{"sequence": "CTGCAGAC", "PBM E-score": -0.12}
{"sequence": "ATAAATAG", "PBM E-score": 0.102}
{"sequence": "ACTGCCCC", "PBM E-score": -0.125}
{"sequence": "AAGTTCGC", "PBM E-score": 0.0418}
{"sequence": "TCAGTAGA", "PBM E-score": 0.0235}
{"sequence": "AAGTACAT", "PBM E-score": 0.131}
{"sequence": "GGAATGAA", "PBM E-score": 0.244}
{"sequence": "TCCTGTCA", "PBM E-score": -0.101}
{"sequence": "CTAGGAAG", "PBM E-score": -0.184}
{"sequence": "CGTGGTTC", "PBM E-score": -0.0577}
{"sequence": "CACCCGTG", "PBM E-score": -0.101}
{"sequence": "AATTCCCC", "PBM E-score": 0.197}
{"sequence": "CTTTAGAC", "PBM E-score": -0.0755}
{"sequence": "GTCTATTA", "PBM E-score": 0.0891}
{"sequence": "TTATAAAA", "PBM E-score": 0.289}
{"sequence": "GAACTGTC", "PBM E-score": -0.044}
{"sequence": "ACTCGCAG", "PBM E-score": 0.00109}
{"sequence": "AGGCGATG", "PBM E-score": -0.00053}
{"sequence": "CGAACTCG", "PBM E-score": 0.0986}
{"sequence": "CCTCAGCA", "PBM E-score": -0.0511}
{"sequence": "GAGAGGAC", "PBM E-score": -0.00053}
{"sequence": "CCGTCGTA", "PBM E-score": 0.0158}
{"sequence": "CCTTAGAG", "PBM E-score": -0.296}
